Data on two compounds can be found in patent publication US8198099B2, “Mechanism to signal receptor-ligand interactions with luminescent quantum dots” (The University of Miami, priority 2006, dated 2012).

The data set can be described thus: Stern-Volmer quenching of quantum dot luminescence by bipyridinium quenchers. The settings on record: quantum dots 1.5 μM, sodium phosphate buffer, pH=7.8, 20° C., λEx=350 nm. Format: binding. How it is done: The emission spectra (λEx=350 nm) of the same solution were recorded before (b) and after the consecutive addition of 1 (c, 4.1 μM) and 3 (d, 21 μM). Also shown is a Stern-Volmer plot (e) of hydrophilic CdSe—ZnS core-shell quantum dots (1.5 μM, sodium phosphate buffer, pH=7.8, 20° C., λEx=350 nm) upon addition of increasing amounts of 1.
Also shown is a Stern-Volmer plot (d) of hydrophilic CdSe—ZnS core-shell quantum dots (1.5 μM, sodium phosphate buffer, pH=7.8, 20° C., λEx=350 nm) after addition of increasing amounts of 2.
Indeed, bipyridinium dications are known to accept electrons from excited CdSe and CdSe—ZnS core-shell quantum dots, quenching their luminescence.36-37 The corresponding Stern-Volmer plot (e in FIG. 2) deviated from linearity at quencher concentrations greater than about 2.5 μM. […]
In order to test the potential of our operating principles to signal receptor-ligand interactions, we designed a compound (2 in FIG. 3) integrating a bipyridinium quencher and a biotin ligand within the same molecular skeleton and prepared this molecule in two synthetic steps (see FIG. 6). Once again, the luminescence of the hydrophilic quantum dots decreases upon exposure to 2 (a and b in FIG. 7) (the addition of either 1 or 2 to a solution of the quantum dots has no influence on the visible region of the absorption spectrum). […]

In the case of `C[n+]1ccc(-c2cc[n+](C)cc2)cc1` [compound 1, methyl viologen, reference compound], the “quencher concentration above which the Stern-Volmer plot deviates from linearity” value was “about 2.5 μM”.
Consider `C[n+]1ccc(-c2cc[n+](CCCOCCCCCC3SCC4NC(=O)NC43)cc2)cc1.[I-].[I-]` (centres unmarked) [compound 2, 1-Methyl-1′-(3-(5-(2-Oxohexahydrothieno[3,4-d]imidazol-6-yl)-pentanoxy)-propyl)-4,4′-Bipyridinium Bisiodide], for which the “quencher concentration above which the Stern-Volmer plot deviates from linearity” value was “about 2.5 μM”.
